# In the supplement of paper PMC7024190:
# Counter-ions that a name gives are not always drawn. Some of the results follow. Single values are uncertain here, since repeats match poorly.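 A first-round screen of about ten thousand compounds sought those raising reporter output, using human embryonic kidney cells briefly transfected with a plasmid carrying a Renilla luciferase gene driven by the HSV-TK promoter.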
# Test system: HEK 293FT
# Assay: log relative Renilla luciferase luminescence (reporter expression vs reference, reference not stated) (log (base not stated)); higher = higher recombinant reporter expression
# Details: 10 µM; time after transfection 48 h
row,Compound,log
1,Cc1cc2nc3ccc(N(C)C)cc3[s+]c2cc1N [tolonium chloride],-0.265
2,Nc1ccc(S(=O)(=O)Nc2ccc(Cl)nn2)cc1 [sulfachlorpyridazine],-0.0403
3,COC1=C(O)C(=O)c2c(cc3oc(C(C)=O)c(O)c3c2O)C1=O [rhodocladonic acid],0.113
4,Oc1ccc(O)cc1 [hydroquinone],0.0668
5,COc1cc2nc(N3CCN(C(=O)C4CCCO4)CC3)nc(N)c2cc1OC (stereo not given) [terazosin hydrochloride],-0.0136
6,CC1CCC(NC(=O)N(CCCl)N=O)CC1 (stereo not given) [semustine],0.171
7,CC1=C2C(O)C(=O)OC3CC4C(C)(C)C(=O)C=C[C@]4(C)C(CC1)[C@]23C (stereo not given in full) [merogedunin],0.0728
8,NS(=O)(=O)c1cc2c(cc1Cl)NCNS2(=O)=O [hydrochlorothiazide],0.203
9,CC(=O)O[C@H]1CC[C@]2(C)[C@H]3CC=C4[C@@H]5CC(C)(C)CC[C@]5(C)CC[C@@]4(C)[C@]3(C)CC[C@H]2C1(C)C [beta-amyrin acetate],0.122
10,COc1cc(/C=C/C(=O)O)ccc1O [ferulic acid],-0.00567
11,CN(C)CCc1c[nH]c2ccc(C[C@H]3COC(=O)N3)cc12 [zolmitriptan],-0.00168
12,CN(C)CCC=C1c2ccccc2C=Cc2ccccc21 [cyclobenzaprine hydrochloride],-0.000954
13,O=c1[nH]c(=O)n([C@H]2C[C@H](O)[C@@H](CO)O2)cc1F [floxuridine],-0.154
14,CNNCc1ccc(C(=O)NC(C)C)cc1 [procarbazine hydrochloride],-0.114
15,Nc1ccc(C(=O)Oc2ccccc2)c(O)c1 [phenyl aminosalicylate],-0.0187
16,C[n+]1cccc(C(=O)[O-])c1 [trigonelline],0.00732
17,O=C(O)c1cc(O)c2c(c1)[C@H]([C@H]1c3cc(C(=O)O)cc(O)c3C(=O)c3c(O[C@@H]4O[C@H](CO)[C@@H](O)[C@H](O)[C@H]4O)cccc31)c1cccc(O[C@@H]3O[C@H](CO)[C@@H](O)[C@H](O)[C@H]3O)c1C2=O [sennoside a],0.0437
18,CC(=O)Oc1cc(C(C)C)c(OCCN(C)C)cc1C [moxisylyte hydrochoride],0.0889
19,CC(c1cc2ccccc2s1)N(O)C(N)=O (stereo not given) [zileuton],0.019
20,C[C@@H]1C(=O)O[C@H]2C[C@@]34[C@H]5C[C@@H](C(C)(C)C)[C@]36[C@@H](OC(=O)[C@@H]6O)O[C@@]4(C(=O)O5)[C@]21O [ginkgolide a],0.00188
21,"CC1=CC(=O)CC(C)(C)C1(O)/C=C/C(C)=C\C(=O)O (mixture of isomers) [abscisic acid (cis,trans; +/-)]",0.0676
22,NC(=O)c1ncn([C@@H]2O[C@H](CO)[C@@H](O)[C@H]2O)c1N [acadesine],0.0931
23,CCC(=O)O[C@H]1[C@H](O[C@@H]2[C@@H](C)[C@H](O[C@H]3C[C@@](C)(OC)[C@@H](O)[C@H](C)O3)[C@@H](C)C(=O)O[C@H](CC)[C@@](C)(O)[C@H](O)[C@@H](C)C(=O)[C@H](C)C[C@@]2(C)O)O[C@H](C)C[C@@H]1N(C)C [erythromycin estolate],0.17
24,Nc1ncnc2c1ncn2[C@@H]1O[C@H](COP(=O)(O)O)[C@@H](O)[C@H]1O [adenosine phosphate],-1.85

row,Compound,log
1,CC(=O)Oc1ccccc1C(=O)Nc1ncc([N+](=O)[O-])s1 [nitazoxanide],-1.08
2,CCN(CC)CCOC(=O)C1(C2CCCCC2)CCCCC1 [dicyclomine hydrochloride],-0.00364
3,"O=c1cc(-c2ccccc2)oc2c(O)c(O)ccc12 [7,8-dihydroxyflavone]",-0.123
4,CCCCOCCOCCOCc1cc2c(cc1CCC)OCO2 [piperonyl butoxide],0.083
5,CC(N/C(=N\C#N)Nc1ccncc1)C(C)(C)C (stereo not given) [pinacidil],0.124
6,CC1(C)OC(=O)C(OCC2CC2)=C1c1ccc(S(C)(=O)=O)cc1 [firocoxib],0.0404
7,CCCCC(O)c1ccccc1 (stereo not given) [fenipentol],0.0214
8,COc1ccc([C@@H]2CC(=O)c3c(O)cc(O)cc3O2)cc1O [hesperetin],0.0647
9,CN(C)CCCN1c2ccccc2Sc2ccc(C(F)(F)F)cc21 [triflupromazine hydrochloride],-0.069
10,COc1cc(C(=O)OCCCN2CCCN(CCCOC(=O)c3cc(OC)c(OC)c(OC)c3)CC2)cc(OC)c1OC [dilazep dihydrochloride],0.1
11,CC[N+](C)(CC)CCOC(=O)C(O)(c1ccccc1)C1CCCCC1 (stereo not given) [oxyphenonium bromide],0.0256
12,O=C1c2c(O)cccc2Cc2cccc(O)c21 [anthralin],-0.175
13,CO[C@H]1C[C@H](O[C@H]2[C@H](C)O[C@@H](O[C@@H]3/C(C)=C/C[C@@H]4C[C@@H](C[C@]5(C=C[C@H](C)[C@@H](C6CCCCC6)O5)O4)OC(=O)[C@@H]4C=C(C)[C@@H](O)[C@H]5OC/C(=C\C=C\[C@@H]3C)[C@]54O)C[C@@H]2OC)O[C@@H](C)[C@@H]1O [doramectin],-0.113
14,"O=S(=O)(O)c1cc(N=C=S)ccc1/C=C/c1ccc(N=C=S)cc1S(=O)(=O)O [4,4'-diisothiocyanostilbene-2,2'-sufonic acid sodium salt]",0.0529
15,CC(=O)OCC(=O)[C@@]1(O)[C@@H](C)C[C@H]2[C@@H]3CCC4=CC(=O)C=C[C@]4(C)[C@@]3(F)[C@@H](O)C[C@@]21C [betamethasone acetate],-0.0251
16,CC(=O)Oc1ccc2c(c1OC(C)=O)OCC1(O)Cc3c(cc(OC(C)=O)c(OC(C)=O)c3OC(C)=O)C21 (stereo not given) [haematoxylin pentaacetate],0.084
17,C[C@@H]1C[C@H]2[C@@H]3C[C@H](F)C4=CC(=O)C=C[C@]4(C)[C@@]3(F)[C@@H](O)C[C@]2(C)[C@@]1(O)C(=O)CO [flumethasone],-0.0194
18,O=C(O)Cc1ccc(-c2ccccc2)cc1 [felbinac],-0.123
19,O=C(O)c1cn(-c2ccc(F)cc2)c2cc(N3CCNCC3)c(F)cc2c1=O [sarafloxacin hydrochloride],0.0525
20,CC[C@H](/C=C/[C@@H](C)[C@H]1CC[C@H]2[C@@H]3CC=C4C[C@@H](O)CC[C@]4(C)[C@H]3CC[C@]12C)C(C)C [stigmasterol],0.0509
21,C[N+]1(C)CCC(OC(=O)C(O)(c2ccccc2)C2CCCC2)C1 (stereo not given) [glycopyrrolate],-0.151
22,CCCCCCCCCCCCCCCCCCOCC(O)CO (stereo not given) [batyl alcohol],0.0573
23,Clc1ccc(CCC(Cn2ccnc2)Sc2c(Cl)cccc2Cl)cc1 (stereo not given) [butoconazole],-0.0794
24,CCCCCc1c2c(cc(O)c1C(=O)O)OC(=O)c1c(cc(OC)cc1C(=O)CCCC)O2 [lobaric acid],-0.156

row,Compound,log
1,N#Cc1ccc(C(c2ccc(C#N)cc2)n2cncn2)cc1 [letrozole],0.106
2,COC1=C[C@@H](C)[C@@H]2C[C@H]3OC(=O)C[C@H]4C(C)=C(OC)C(=O)[C@H]([C@@]2(C)C1=O)[C@@]34C [quassin],0.0319
3,COc1c2occc2cc2ccc(=O)oc12 [methoxsalen],0.0375
4,N=C(NCCCCCCNC(=N)NC(=N)Nc1ccc(Cl)cc1)NC(=N)Nc1ccc(Cl)cc1 [chlorhexidine dihydrochloride],-0.157
5,NCc1ccccc1CC(=O)N[C@@H]1C(=O)N2C(C(=O)O)=C(CSc3nnnn3CC(=O)O)CS[C@H]12 [ceforanide],-0.0398
6,CN1CCN(C2=Nc3ccccc3Oc3ccc(Cl)cc32)CC1 [loxapine succinate],0.0576
7,CC(C)CC(N)=O [isovaleramide],0.0502
8,COC(=O)c1cc(O)c(=O)c2c(O)c(O)ccc2c1 [methyl 7-deshydroxypyrogallin-4-carboxylate],0.307
9,Oc1ccc2ccccc2c1 [beta-naphthol],-1.54
10,CC(=O)S[C@@H]1CC2=CC(=O)CC[C@]2(C)[C@H]2CC[C@@]3(C)[C@@H](CC[C@@]34CCC(=O)O4)[C@H]12 [spironolactone],0.128
11,CCCc1cc(C(N)=S)ccn1 [protionamide],0.00793
12,CC(Cc1cccc(C(F)(F)F)c1)NCCOC(=O)c1ccccc1 (stereo not given) [benfluorex hydrochloride],0.0284
13,C=C1CC[C@H](O)C/C1=C/C=C1\CCC[C@]2(C)[C@@H]([C@H](C)CCCC(C)C)CC[C@@H]12 [cholecalciferol],0.109
14,NNCCc1ccccc1 [phenelzine sulfate],0.0602
15,Cc1nccnc1N1CCCCC1 [modaline sulfate],0.0705
16,C[C@H]1O[C@H](O[C@H]2[C@H](O)[C@@H](O)[C@@H](O[C@H]3[C@H](O)[C@@H](O)C(O)O[C@@H]3CO)O[C@@H]2CO)[C@H](O)[C@@H](O)[C@@H]1N[C@H]1C=C(CO)[C@@H](O)[C@H](O)[C@H]1O (stereo not given in full) [acarbose],0.0233
17,CC(C)(CO)[C@@H](O)C(=O)NCCC(=O)NCCSSCCNC(=O)CCNC(=O)[C@H](O)C(C)(C)CO [pantethine],0.004
18,CN1CCN(CC/C=C2/c3ccccc3Sc3ccc(S(=O)(=O)N(C)C)cc32)CC1 [thiothixene],0.0741
19,"COc1ccc2c(=O)c(OC)c(-c3ccccc3)oc2c1 [3,7-dimethoxyflavone]",-0.0168
20,CN1CCC(=C2c3ccccc3C=Cc3ccccc32)CC1 [cyproheptadine hydrochloride],-0.0451
21,COc1ccc(-c2cc(=O)c3ccccc3o2)cc1 [4'-methoxyflavone],0.0121
22,N=C(N)NC(=N)NCCc1ccccc1 [phenformin hydrochloride],0.214

# Fetched one by one from the entries so far:
row,Compound,log
4,Oc1ccc(O)cc1 [hydroquinone],0.0668
22,CCCCCCCCCCCCCCCCCCOCC(O)CO (stereo not given) [batyl alcohol],0.0573
21,"CC1=CC(=O)CC(C)(C)C1(O)/C=C/C(C)=C\C(=O)O (mixture of isomers) [abscisic acid (cis,trans; +/-)]",0.0676
